The list shows a part of the results. The main result of the screen is listed elsewhere. These columns were measured beside it and carry no call. Most of these compounds were active or inconclusive in the main read-out, so they are no random draw. The note in brackets gives the kind of curve behind each potency; many fits are weak.
Assay: qHTS Assay for Lipid Storage Modulators in Drosophila S3 Cells;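 as to cell number change: cells counted by Cell Tracker Red CMTPX staining in the red channel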
Settings: BODIPY lipid droplet fluorescence, 18-24 h; for cell number change: measured here: cell count max response, cells fed with added oleic acid
Outline: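 Drosophila S3 cells loaded with oleic acid (400 uM, as added) and compounds at several concentrations; lipid droplets imaged by 488-nm laser-scanning cytometry, 500–530 nm intensity and object ratio to cell channel. Percent activity normalized to 20 uM Triacsin C.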

[1] = measured here: cell number channel AC50, cells fed with added oleic acid
[2] = measured here: lipid fluorescence (Fed channel) AC50, cells fed with added oleic acid

SMILES	cell number change [%]	AC50 [1]	AC50 [2]
COc1cccc(CN(C)CC(O)COc2cc(Cl)ccc2Cl)c1 (centres undefined)	-36.6	29.1 µM [falling, single point]	1.3 µM [rising, full curve, poor fit]
O=C1N(Cc2ccccc2)c2ccc(Cl)cc2C12OCCO2	5.44	–	0.461 µM [rising, partial curve, poor fit]
CS(=O)(=O)c1ccc2nc(NC3(C(F)(F)F)N=C4SCCN4C3=O)sc2c1 (centres undefined)	–	–	0.00411 µM [rising, full curve, poor fit]
COc1ccc(C(=O)NNC2=Nc3cccc4cccc2c34)cc1	35.4	25.9 µM [rising, single point]	4.11 µM [rising, single point]
COc1ccc(Cl)cc1NC(=O)CSc1nc2sccc2c(=O)[nH]1	-7.75	–	4.11 µM [rising, single point]
CCOC(=O)c1cc(-c2ccccc2)sc1NC(=O)c1cc(OC)c(OC)c(OC)c1	10.5	–	0.517 µM [rising, single point]
O=C(/C=C/c1ccco1)Nc1cc(Cl)ccc1C(=O)O	0.822	–	6.51 µM [rising, single point]
CSc1nc2ccc(S(=O)(=O)N3CCOCC3)cc2s1	–	0.517 µM [falling, full curve]	0.291 µM [falling, partial curve, poor fit]
O=C(N/C(=C\c1ccc(Br)cc1)C(=O)N1CCOCC1)c1ccc([N+](=O)[O-])cc1	2.86	–	6.51 µM [falling, single point]
CCc1cc(-c2nc(N)ncc2-c2ccc(Br)cc2)c(O)cc1OC	-38.8	18.4 µM [falling, single point]	29.1 µM [falling, single point]
CCCc1cc(C(=O)N2CCCC(N3CCN(c4ccccc4F)CC3)C2)n(C)n1 (centres undefined)	10.5	–	29.1 µM [falling, single point]
CCc1ccc(NC(=O)c2ccc(Cn3cc([N+](=O)[O-])cn3)cc2)cc1	9.53	–	0.0291 µM [rising, full curve, poor fit]
CN1CCN(/C=N/c2c(C#N)cnn2Cc2ccccc2)CC1	-15.5	–	–
COc1nc(-c2cccc([N+](=O)[O-])c2)nc2ccccc12	26.2	0.082 µM [rising, full curve, poor fit]	–
COc1cccc(NC(=S)NNC(=O)c2ccccc2OC(F)F)c1	69.8	29.1 µM [rising, single point]	–
Cc1ccc2c(NC(=O)c3ccc(Br)o3)cccc2n1	5.6	–	–
CC(C)(C)C(=O)NCCCc1ccccc1	-17.2	–	–
O=C(O)c1ccccc1N(Cc1ccccc1)C(=O)CO/N=C/c1ccccc1	10.9	6.51 µM [rising, single point]	0.231 µM [falling, full curve, poor fit]
CC1CN(C(=S)SCC(=O)c2ccccc2)CC(C)O1 (centres undefined)	-27.5	–	0.259 µM [falling, full curve, poor fit]
Cc1ccc(S(=O)(=O)N[C@H](C(=O)OCn2nnc3ccccc3c2=O)C(C)C)cc1	-88.8	29.1 µM [falling, single point]	–
Nc1nnnn1/N=C/c1ccccc1OCc1ccc(Cl)cc1Cl	-23.6	–	4.11 µM [rising, partial curve]
CCn1c(SCC(=O)Nc2ccc(C)cc2)nc(O)cc1=O	-18.4	–	1.03 µM [falling, full curve]
Cc1cn(C2CC(OC(=O)C(C)C)C(CO)O2)c(=O)[nH]c1=O (centres undefined)	32.9	16.4 µM [rising, single point]	0.13 µM [rising, full curve, poor fit]
COCCCNC(=O)/C(C#N)=c1\s/c(=C\c2ccccc2OC(F)F)c(=O)n1CCCOC	36.2	–	6.51 µM [rising, single point]
Cc1ccc(S(=O)(=O)N(C)C2(C)CCS(=O)(=O)C2)cc1 (centres undefined)	-33.9	32.6 µM [falling, single point]	29.1 µM [falling, single point]
CCn1nc(NC(=O)c2cccs2)c2cc3ccccc3nc21	61.1	–	29.1 µM [rising, partial curve]
OCC1(CCOc2ccccc2)CCN(Cc2cn[nH]c2-c2ccccc2)CC1	14	–	–
COc1ccc(C)cc1NC(=O)COC(=O)C1CC1	1.47	0.146 µM [falling, full curve]	0.291 µM [falling, partial curve, poor fit]

In another format: results already given

| SMILES | cell number change [%] | AC50 [1] | AC50 [2] |
| --- | --- | --- | --- |
| COc1cccc(CN(C)CC(O)COc2cc(Cl)ccc2Cl)c1 (centres undefined) | -36.6 | 29.1 µM [falling, single point] | 1.3 µM [rising, full curve, poor fit] |
| CCCc1cc(C(=O)N2CCCC(N3CCN(c4ccccc4F)CC3)C2)n(C)n1 (centres undefined) | 10.5 | – | 29.1 µM [falling, single point] |
| OCC1(CCOc2ccccc2)CCN(Cc2cn[nH]c2-c2ccccc2)CC1 | 14 | – | – |

Next part:

SMILES	cell number change [%]	AC50 [1]	AC50 [2]
COc1ccc(C(NC(=O)C2CCCCC2)c2c(O)ccc3ccccc23)cc1 (centres undefined)	-13	–	0.731 µM [falling, full curve, poor fit]
O=C(NCCC1CCCCN1S(=O)(=O)c1cccs1)C(=O)Nc1ccc(F)cc1 (centres undefined)	-30.7	10.3 µM [falling, partial curve]	–
C=CCn1c(SCCOc2ccc(OC)cc2)nnc1C(CO)NC(=O)c1ccc(OC)cc1 (centres undefined)	111	29.1 µM [rising, single point]	0.731 µM [rising, full curve]
O=C1c2ccccc2C(=O)c2[nH]c(=O)[nH]c21	-39.7	10.3 µM [falling, partial curve]	13 µM [falling, partial curve]
CC#CC#Cc1cccc(=O)o1	-9.74	–	2.06 µM [falling, partial curve]
O=C(CN(C(=O)c1cccc([N+](=O)[O-])c1)C1CCCCC1)Nc1ccc(Cl)c([N+](=O)[O-])c1	15.8	–	3.26 µM [rising, full curve, poor fit]
S=C(NCCC(c1ccccc1)c1ccccc1)Nc1ccc(Cl)cc1	-19.8	–	1.64 µM [falling, single point]
CCN(CC(=O)Nc1c(F)cccc1F)C(=O)/C=C/c1ccc(OCC#N)c(OC)c1	2.55	0.164 µM [rising, full curve, poor fit]	0.116 µM [rising, full curve, poor fit]
CCc1cc(C(=O)N(CC)CC(=O)Nc2ccc(OC)cc2)sc1C	28.5	–	18.4 µM [falling, single point]
COc1ccc2c(c1)c(C(=O)CN1CCN(C(=O)c3ccco3)CC1)c(C)n2C	-14.7	–	4.61 µM [rising, full curve, poor fit]
Cc1cccc(NC(=O)CN2C(=O)NC(Cc3ccccc3)C2=O)c1 (centres undefined)	–	0.103 µM [rising, full curve, poor fit]	0.206 µM [rising, full curve, poor fit]
O=C(CN1CCN(Cc2cccc(Cl)c2)C1=O)NCC1CCCO1 (centres undefined)	-60.2	16.4 µM [falling, single point]	–
CC(C)(C)NC(=S)N/N=C\c1ccc(-c2ccc([N+](=O)[O-])cc2)o1	-1.42	–	–
CCOc1cc(C(=O)NC(C)CCc2ccccc2)cc(OCC)c1OCC (centres undefined)	2.81	–	29.1 µM [falling, single point]
O=C(Nc1cccc(S(=O)(=O)N2CCCC2)c1)c1cccc(OC(F)F)c1	39.4	1.03 µM [rising, full curve]	–
CC1CCN(C(=O)COc2cccc3c2CCN(C)C3=O)CC1	-29	–	1.84 µM [falling, full curve]
CCOC(=O)c1cnc(-n2nc(C)cc2C)nc1NCCc1ccccc1	-69.1	29.1 µM [falling, single point]	2.91 µM [rising, partial curve]
CC(C)C(=O)O/N=C1\CCS(=O)(=O)c2sccc21	21.1	–	23.1 µM [rising, single point]
O=C(c1ccc(-n2cncn2)c([N+](=O)[O-])c1)N1CCN(S(=O)(=O)c2cccc(F)c2)CC1	–	6.51 µM [rising, single point]	1.84 µM [falling, full curve, poor fit]
Cc1ccc(C(=O)NNC(=O)C2CCN(Cc3ccc(Cl)c(Cl)c3)CC2)cc1	-4.84	0.259 µM [falling, partial curve, poor fit]	–
CCn1c(CC(=O)Nc2ccccc2F)nnc1SCC(=O)Nc1nnc(C)s1	9.4	–	29.1 µM [rising, single point]
Cc1ccc(N(C(=O)Nc2ccccc2)C2=NCCC2)cc1	20.1	0.0058 µM [rising, full curve, poor fit]	29.1 µM [rising, single point]
COc1cccc(C2C(C(C)=O)=C(C)Nc3ncnn32)c1 (centres undefined)	50	29.1 µM [rising, partial curve, poor fit]	29.1 µM [falling, single point]
CC1(C)C(c2ccccc2)=NC(c2ccc(F)cc2)N1O (centres undefined)	183	5.8 µM [rising, full curve]	8.2 µM [rising, partial curve]
CCOC(=O)N1CCN(c2cc(=O)n(-c3ccccc3C)c(=O)[nH]2)CC1	22.2	2.91 µM [falling, single point]	3.26 µM [falling, single point]
CCC(=Nc1ccccc1OC)C1=C(O)CC(c2ccccc2)CC1=O (centres undefined)	-37.2	1.3 µM [falling, partial curve, poor fit]	–
Cc1c(NC(=O)c2ccc(Cl)s2)c(=O)n(-c2ccccc2)n1C	-19.1	–	29.1 µM [rising, single point]

Source: PubChem BioAssay AID2685 (National Center for Advancing Translational Sciences (NCATS), 2010)
